Measurements reported in PubChem BioAssay AID1259425 (University of Nebraska Medical Center, 2018).

Assay: 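Compare each knockdown with KSR1 silencing using changes in marker transcripts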 (primary screen)
System: HCT116 human colon cancer cells
Knock-down reagent: siRNA pool against human genes, 50 nM siRNA
Measured: 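After 50 nM siRNA pool, branched-DNA assay measures six marker transcripts per well, minus blank, normalised to the geometric mean of two housekeeping transcripts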
Direction: BNIP3L mRNA: higher = more BNIP3L transcript after knockdown
In all, the deposit lists about 14,000 reagents; below is a random part of them. Not all columns of the deposit are shown. Not stated in the record: the time to read-out.

gene | BNIP3L mRNA, set 1
MXRA8 | 0.167
SHD | 0.194
KCNK15 | 0.0625
PEX26 | 0.0642
NRF1 | 0.154
CCAR2 | 0.092
SFRP1 | 0.108
PLAGL1 | 0.191
TLE5 | 0.146
TAMALIN | 0.0518

The list goes on (2 carried over from the part before).
gene | BNIP3L mRNA, set 1
TLE5 | 0.146
TAMALIN | 0.0518
UBE2R2 | 0.0478
SPDL1 | 0.118
TLK1 | 0.124
PRR14 | 0.172
HMCES | 0.255
SUDS3 | 0.339
IGF2 | 0.0437
CTSB | 0.0814
MCHR1 | 0.175
CIPC | 0.0794
